The series can be described thus: general procedure: peptide synthesis; TBTU/DIEA. As to conditions: conjugation step, MALDI-MS.

Bounds are passed on as bounds.

Take “3-(1-(N^α -(3-(α,α-dimethylbenzyl)benzenesulphonyl)-(S)-arginyl)-piperid-4-yl)-propionyl-(Gly)4 -Asn-hirudin(54-64)”: the final ms purity is over 98%.

(Values after patent US5686564 (dated 1997).)
